Results: publication PMC10579432
No constants are given. Whether binding was seen depends on the method and setting. Binding seen in cells or lysates may run through a third protein.

By UniProt entry, the sequences of proteins in these tests, tags left out.
UniProt Q6Q477: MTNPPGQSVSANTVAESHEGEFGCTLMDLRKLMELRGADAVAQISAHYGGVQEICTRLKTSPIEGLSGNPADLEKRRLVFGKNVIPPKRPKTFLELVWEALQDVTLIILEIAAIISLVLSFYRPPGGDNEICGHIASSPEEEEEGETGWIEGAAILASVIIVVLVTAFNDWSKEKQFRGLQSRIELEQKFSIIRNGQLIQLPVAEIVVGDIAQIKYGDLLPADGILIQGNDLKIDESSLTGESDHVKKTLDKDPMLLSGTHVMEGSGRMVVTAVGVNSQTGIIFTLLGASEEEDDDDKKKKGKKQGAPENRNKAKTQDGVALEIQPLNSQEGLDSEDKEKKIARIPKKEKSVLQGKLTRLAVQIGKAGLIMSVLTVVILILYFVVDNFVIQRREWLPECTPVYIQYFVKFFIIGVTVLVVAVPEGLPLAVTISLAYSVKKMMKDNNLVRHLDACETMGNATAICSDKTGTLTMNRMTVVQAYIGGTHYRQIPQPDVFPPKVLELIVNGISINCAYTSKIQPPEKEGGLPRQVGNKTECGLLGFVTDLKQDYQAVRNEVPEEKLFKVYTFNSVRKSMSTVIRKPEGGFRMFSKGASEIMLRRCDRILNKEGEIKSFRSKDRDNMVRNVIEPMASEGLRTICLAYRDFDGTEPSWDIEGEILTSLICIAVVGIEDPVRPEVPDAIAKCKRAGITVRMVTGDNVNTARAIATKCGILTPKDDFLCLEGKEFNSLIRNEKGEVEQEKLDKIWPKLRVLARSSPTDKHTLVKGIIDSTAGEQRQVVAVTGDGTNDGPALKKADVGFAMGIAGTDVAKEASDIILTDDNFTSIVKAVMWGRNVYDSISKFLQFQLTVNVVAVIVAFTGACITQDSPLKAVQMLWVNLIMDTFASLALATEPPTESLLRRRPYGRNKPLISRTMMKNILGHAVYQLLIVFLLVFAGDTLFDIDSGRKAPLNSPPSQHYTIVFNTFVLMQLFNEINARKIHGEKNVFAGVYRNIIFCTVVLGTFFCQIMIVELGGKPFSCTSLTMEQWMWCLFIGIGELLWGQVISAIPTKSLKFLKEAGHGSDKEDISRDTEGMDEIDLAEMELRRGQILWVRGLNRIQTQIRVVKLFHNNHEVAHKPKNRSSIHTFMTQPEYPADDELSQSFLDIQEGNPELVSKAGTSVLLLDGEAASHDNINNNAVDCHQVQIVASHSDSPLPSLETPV
UniProt G5E829: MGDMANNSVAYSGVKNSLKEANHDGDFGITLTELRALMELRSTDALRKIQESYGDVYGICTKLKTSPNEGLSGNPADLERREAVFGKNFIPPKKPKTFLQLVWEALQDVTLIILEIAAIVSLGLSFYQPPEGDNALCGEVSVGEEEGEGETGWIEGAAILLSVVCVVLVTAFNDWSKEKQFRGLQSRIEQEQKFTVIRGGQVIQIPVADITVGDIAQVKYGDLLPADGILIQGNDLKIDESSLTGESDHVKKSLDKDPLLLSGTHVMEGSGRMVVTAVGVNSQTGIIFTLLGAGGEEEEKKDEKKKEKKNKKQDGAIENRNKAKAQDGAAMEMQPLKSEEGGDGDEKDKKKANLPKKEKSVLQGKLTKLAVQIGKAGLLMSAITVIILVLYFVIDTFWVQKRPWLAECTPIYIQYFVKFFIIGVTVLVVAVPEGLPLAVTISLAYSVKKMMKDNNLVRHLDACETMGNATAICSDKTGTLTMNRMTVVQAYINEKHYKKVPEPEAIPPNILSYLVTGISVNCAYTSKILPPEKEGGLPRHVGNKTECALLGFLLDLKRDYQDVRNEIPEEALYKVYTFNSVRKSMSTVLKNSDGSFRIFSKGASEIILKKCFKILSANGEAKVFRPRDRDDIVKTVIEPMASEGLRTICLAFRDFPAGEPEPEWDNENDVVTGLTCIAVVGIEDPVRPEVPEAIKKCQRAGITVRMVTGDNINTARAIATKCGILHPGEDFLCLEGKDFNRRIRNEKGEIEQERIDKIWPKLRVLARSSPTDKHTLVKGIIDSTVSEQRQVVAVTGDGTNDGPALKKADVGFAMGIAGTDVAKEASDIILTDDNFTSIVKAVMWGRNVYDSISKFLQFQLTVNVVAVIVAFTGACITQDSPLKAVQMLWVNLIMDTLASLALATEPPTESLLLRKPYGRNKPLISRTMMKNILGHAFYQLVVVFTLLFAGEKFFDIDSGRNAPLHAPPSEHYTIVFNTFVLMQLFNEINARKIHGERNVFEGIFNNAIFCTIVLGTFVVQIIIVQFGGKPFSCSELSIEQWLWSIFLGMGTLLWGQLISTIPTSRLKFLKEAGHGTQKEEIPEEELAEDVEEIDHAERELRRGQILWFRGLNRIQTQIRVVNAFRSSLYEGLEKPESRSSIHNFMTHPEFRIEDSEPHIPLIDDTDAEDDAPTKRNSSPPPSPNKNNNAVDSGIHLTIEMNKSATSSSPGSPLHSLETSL
UniProt Q9R0K7: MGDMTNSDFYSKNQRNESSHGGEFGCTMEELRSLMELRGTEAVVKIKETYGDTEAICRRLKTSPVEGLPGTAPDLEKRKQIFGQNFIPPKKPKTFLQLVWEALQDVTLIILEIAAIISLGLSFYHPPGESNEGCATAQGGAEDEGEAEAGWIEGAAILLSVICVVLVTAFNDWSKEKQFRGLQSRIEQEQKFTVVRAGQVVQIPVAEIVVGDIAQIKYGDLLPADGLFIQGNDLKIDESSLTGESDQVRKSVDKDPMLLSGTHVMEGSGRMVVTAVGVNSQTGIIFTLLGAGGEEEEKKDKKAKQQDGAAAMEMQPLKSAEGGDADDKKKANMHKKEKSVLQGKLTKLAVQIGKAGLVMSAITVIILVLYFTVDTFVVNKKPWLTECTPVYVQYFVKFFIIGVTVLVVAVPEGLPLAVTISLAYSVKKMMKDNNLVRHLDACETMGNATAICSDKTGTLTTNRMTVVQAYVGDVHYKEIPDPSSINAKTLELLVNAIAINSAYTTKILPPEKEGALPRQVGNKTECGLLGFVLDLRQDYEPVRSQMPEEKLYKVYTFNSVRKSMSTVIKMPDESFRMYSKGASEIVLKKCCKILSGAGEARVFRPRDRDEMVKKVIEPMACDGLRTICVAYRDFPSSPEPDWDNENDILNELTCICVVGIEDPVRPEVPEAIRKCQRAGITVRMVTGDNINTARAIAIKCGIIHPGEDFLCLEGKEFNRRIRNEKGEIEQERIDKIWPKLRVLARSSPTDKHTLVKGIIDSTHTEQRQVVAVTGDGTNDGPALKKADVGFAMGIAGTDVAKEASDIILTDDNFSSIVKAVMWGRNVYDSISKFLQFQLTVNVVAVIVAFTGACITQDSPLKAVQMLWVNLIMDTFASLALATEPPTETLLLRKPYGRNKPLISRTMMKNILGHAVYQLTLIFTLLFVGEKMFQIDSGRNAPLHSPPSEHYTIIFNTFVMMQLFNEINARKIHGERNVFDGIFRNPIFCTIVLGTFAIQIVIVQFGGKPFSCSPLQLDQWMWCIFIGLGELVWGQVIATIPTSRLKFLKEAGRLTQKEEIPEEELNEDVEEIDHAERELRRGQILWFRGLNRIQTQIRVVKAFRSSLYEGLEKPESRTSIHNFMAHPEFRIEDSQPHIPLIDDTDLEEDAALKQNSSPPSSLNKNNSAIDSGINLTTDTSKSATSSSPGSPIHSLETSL
UniProt Q0VF55: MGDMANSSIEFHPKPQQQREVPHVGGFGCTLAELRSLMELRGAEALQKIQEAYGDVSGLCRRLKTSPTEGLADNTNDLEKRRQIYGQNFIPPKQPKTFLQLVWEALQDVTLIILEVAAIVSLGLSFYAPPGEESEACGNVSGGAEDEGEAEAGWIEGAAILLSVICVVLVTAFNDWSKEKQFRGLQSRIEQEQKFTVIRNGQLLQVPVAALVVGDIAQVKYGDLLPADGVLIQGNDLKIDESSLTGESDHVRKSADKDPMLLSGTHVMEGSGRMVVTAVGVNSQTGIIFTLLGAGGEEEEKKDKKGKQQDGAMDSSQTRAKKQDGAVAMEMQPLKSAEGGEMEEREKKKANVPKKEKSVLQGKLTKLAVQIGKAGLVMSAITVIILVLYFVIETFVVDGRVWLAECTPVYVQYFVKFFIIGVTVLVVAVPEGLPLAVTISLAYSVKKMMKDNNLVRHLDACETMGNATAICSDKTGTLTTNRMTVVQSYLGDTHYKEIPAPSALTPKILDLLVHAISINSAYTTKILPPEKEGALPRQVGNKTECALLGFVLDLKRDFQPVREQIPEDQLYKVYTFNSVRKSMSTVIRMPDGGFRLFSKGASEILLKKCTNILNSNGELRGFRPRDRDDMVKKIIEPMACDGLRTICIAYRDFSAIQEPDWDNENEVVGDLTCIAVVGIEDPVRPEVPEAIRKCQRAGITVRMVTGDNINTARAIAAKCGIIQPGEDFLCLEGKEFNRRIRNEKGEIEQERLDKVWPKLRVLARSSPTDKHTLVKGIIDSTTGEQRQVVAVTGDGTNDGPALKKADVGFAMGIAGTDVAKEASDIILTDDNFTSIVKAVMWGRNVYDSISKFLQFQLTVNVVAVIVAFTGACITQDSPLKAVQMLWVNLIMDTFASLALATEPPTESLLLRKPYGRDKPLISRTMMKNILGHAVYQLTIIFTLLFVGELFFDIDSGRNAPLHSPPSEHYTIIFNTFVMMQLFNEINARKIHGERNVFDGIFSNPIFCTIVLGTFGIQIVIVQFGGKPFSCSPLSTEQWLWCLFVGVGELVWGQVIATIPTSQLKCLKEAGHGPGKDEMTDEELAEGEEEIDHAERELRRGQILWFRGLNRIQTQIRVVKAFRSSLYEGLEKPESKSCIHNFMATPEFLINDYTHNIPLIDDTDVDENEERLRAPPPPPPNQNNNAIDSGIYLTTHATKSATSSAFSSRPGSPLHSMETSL

Key:
Test in all cases: co-IP; pan-PMCA (5F10) antibody with Dynabeads Protein G; 10 cochleae (5 wild type C57BL/6N mice) pooled, NP-40 lysis buffer (150 mM NaCl, 50 mM Tris, 1% NP-40), 1 mg total protein, overnight at 4°C; blot with anti-Embigin G7.43.1 and anti-PMCA 5F10
[1] = molecular target: plasma membrane calcium ATPase 4 (mouse (endogenous in cochlea)) (UniProt Q6Q477)
[2] = molecular target: plasma membrane calcium ATPase 1 (mouse (endogenous in cochlea)) (UniProt G5E829)
[3] = molecular target: plasma membrane calcium ATPase 2 (mouse (endogenous in cochlea)) (UniProt Q9R0K7)
[4] = molecular target: plasma membrane calcium ATPase 3 (mouse (endogenous in cochlea)) (UniProt Q0VF55)

- binding [1]: no binding
- binding [2]: no binding
- binding [3]: no binding
- binding [4]: no binding
B1: Embigin (protein, UniProt P21995 34-330)
chain: DPTDPTFTSLPVREEMMAKYSNLSLKSCNISVTEKSNVSVEENVILEKPSHVELKCVYTATKDLNLMNVTWKKDDEPLETTGDFNTTKMGNTLTSQYRFIVFNSKQLGKYSCVFGEKELRGTFNIHVPKAHGKKKSLIAYVGDSTVLKCVCQDCLPLNWTWYMGNETAQVPIDAHSNEKYIINGSHANETRLKIKHLLEEDGGSYWCRATFQLGESEEQNELVVLSFLVPLKPFLAILAEVILLVAIILLCEVYTHKKKNDPDAGKEFEQIEQLKSDDSNGIENNVPRYRKTDSADQ
